PubChem BioAssay AID248 (DTP/NCI, 2004)
The list shows only some results of the screen, not a fair sample: it gathers tests that were run many times, whatever their T/C, doses with no T/C, and many T/C values between a quarter and a half above the control. Other doses and runs of a compound stand elsewhere. T/C gives the treated animals as a percentage of the vehicle group. Some entries give survivors of the animals treated and no T/C: the source holds a T/C of zero for them, seemingly a mark for toxic or unscored doses. Some doses without a T/C left all or most animals alive at the check, yet need not have been tolerated: the source hardly ever lists a survival T/C far under the control, and the zero likely stands for such cases as well. Survivors were counted at the toxicity check, usually on the fifth day, unless a day is given; later deaths do not show. Schedules are NCI's codes, read here as Q, the interval in days (D) or hours (H), X, the number of doses. Some schedules carry Z or #; the key to these is not given. Some entries were tested several times; the results are listed from low to high. Some molecules as drawn cover several salts, stereoisomers or complexes of the source; a dose is that of the sample tested. Counts like (3×) give the number of equal values in this list. For survival time, this PubChem deposit counts one and a half times the control or more as active, and values a quarter to a half above the control carry no call in these data; other NCI protocols may use other cut-offs. Some T/C values carry the count of animals alive at the toxicity check (mostly the fifth day); where none is given, no animal had died by that day.

Test system: L1210 leukemia ip in BDF1 mice, survival T/C
Assay: NCI In Vivo Anticancer Drug Screen. Data for tumor model L1210 Leukemia (intraperitoneal) in B6D2F1 (BDF1) mice
Conditions: T/C endpoint: mean survival time, higher T/C = longer survival
[1] = dose: 37.0 mg/kg/injection, schedule: Q01DX Z (ip), vehicle: other
[2] = dose: 50.0 mg/kg/injection, schedule: Q01DX001 (ip), vehicle: carboxymethylcellulose (CMC)

Question: How did the survivor count (dose: 150.0 mg/kg/injection, schedule: Q01DX001 (ip), vehicle: saline) turn out when CCCCCCC(C)NCCOC(=O)c1ccc(N)cc1 (centres undefined) was run?
Answer: 0 of 6

Question: What about the survivor count (dose: 150.0 mg/kg/injection, schedule: Q04DX003 (ip), vehicle: other) of the same compound?
Answer: 0 of 6

Question: What about the survivor count (dose: 300.0 mg/kg/injection, schedule: Q01DX001 (ip), vehicle: other) of the same compound?
Answer: 0 of 6 (2×)

Question: What about the survivor count (dose: 300.0 mg/kg/injection, schedule: Q01DX001 (ip), vehicle: saline) of the same compound?
Answer: 1 of 6 and 2 of 6

Question: How did the survivor count (dose: 6.0 mg/kg/injection, schedule: Q01DX009 (ip), vehicle: Klucel (hydroxypropylcellulose) (HPC)) turn out when Cc1cc(N)c2ccccc2[n+]1CCCCCCCCCC[n+]1c(C)cc(N)c2ccccc21 was run?
Answer: 6 of 6

Question: What about the survivor count (dose: 12.0 mg/kg/injection, schedule: Q01DX009 (ip), vehicle: Klucel (hydroxypropylcellulose) (HPC)) of the same compound?
Answer: 3 of 6

Question: And the survivor count (dose: 25.0 mg/kg/injection, schedule: Q04DX003 (ip), vehicle: Klucel (hydroxypropylcellulose) (HPC))?
Answer: 6 of 6

Question: What about the survivor count (dose: 50.0 mg/kg/injection, schedule: Q04DX003 (ip), vehicle: Klucel (hydroxypropylcellulose) (HPC)) of the same compound?
Answer: 0 of 6

Question: What about the survivor count (dose: 100.0 mg/kg/injection, schedule: Q04DX003 (ip), vehicle: Klucel (hydroxypropylcellulose) (HPC)) of the same compound?
Answer: 0 of 6

Question: What about the survivor count (dose: 200.0 mg/kg/injection, schedule: Q04DX003 (ip), vehicle: Klucel (hydroxypropylcellulose) (HPC)) of the same compound?
Answer: 0 of 6

Question: And the survivor count (dose: 400.0 mg/kg/injection, schedule: Q04DX003 (ip), vehicle: Klucel (hydroxypropylcellulose) (HPC))?
Answer: 0 of 6

Question: Which survivor count (dose: 400.0 mg/kg/injection, schedule: Q04DX003 (ip), vehicle: saline with Tween-80) does the source give for C/C(=C\Cl)CN(C)C here?
Answer: 0 of 6

Question: For Cc1ccc(NC(=O)NC(C)C)c(C)c1, which survivor count (dose: 100.0 mg/kg/injection, schedule: Q04DX003 (ip), vehicle: saline with Tween-80) is on record?
Answer: 6 of 6

Question: What about the survivor count (dose: 200.0 mg/kg/injection, schedule: Q04DX003 (ip), vehicle: saline with Tween-80) of the same compound?
Answer: 5 of 6

Question: How did the survivor count (dose: 25.0 mg/kg/injection, schedule: Q01DX Z (ip), vehicle: methylcellulose (MC)) turn out when Nc1cc(Nc2ccccc2)nc(N)n1 was run?
Answer: 6 of 6

Question: And the survivor count (dose: 50.0 mg/kg/injection, schedule: Q01DX Z (ip), vehicle: methylcellulose (MC))?
Answer: 6 of 6

Question: And the survivor count (dose: 100.0 mg/kg/injection, schedule: Q01DX Z (ip), vehicle: methylcellulose (MC))?
Answer: 2 of 6

Question: What about the survivor count (dose: 200.0 mg/kg/injection, schedule: Q01DX Z (ip), vehicle: methylcellulose (MC)) of the same compound?
Answer: 0 of 6

Question: Which T/C (dose: 1.0 mg/kg/injection, schedule: Q01DX Z (ip), vehicle: other) does the source give for Nc1nc(SN=Nc2ccc([As](=O)(O)O)cc2)c2[nH]cnc2n1 here?
Answer: 128 % of control (2×)

Question: What about the T/C (dose: 2.5 mg/kg/injection, schedule: Q01DX Z (ip), vehicle: other) of the same compound?
Answer: 125 % of control

Question: And the T/C (dose: 5.0 mg/kg/injection, schedule: Q01DX015 (ip), vehicle: carboxymethylcellulose (CMC))?
Answer: 142 % of control

Question: And the T/C (dose: 5.0 mg/kg/injection, schedule: Q01DX Z (ip), vehicle: other)?
Answer: 134 (2×), 141, 144 % of control

Question: And the T/C (dose: 7.0 mg/kg/injection, schedule: Q01DX Z (ip), vehicle: other)?
Answer: 134 [5 of 6 alive], 146, 153, 158 % of control

Question: What about the T/C (dose: 11.0 mg/kg/injection, schedule: Q01DX Z (ip), vehicle: other) of the same compound?
Answer: 134 % of control

Question: What about the T/C (dose: 16.0 mg/kg/injection, schedule: Q01DX Z (ip), vehicle: other) of the same compound?
Answer: 145 % of control

Question: What about the T/C (dose: 17.0 mg/kg/injection, schedule: Q01DX Z (ip), vehicle: other) of the same compound?
Answer: 131 % of control [5 of 6 alive]

Question: What about the survivor count (dose: 20.0 mg/kg/injection, schedule: Q01DX015 (ip), vehicle: carboxymethylcellulose (CMC)) of the same compound?
Answer: 0 of 6

Question: And the T/C (dose: 25.0 mg/kg/injection, schedule: Q01DX001 (ip), vehicle: carboxymethylcellulose (CMC))?
Answer: 126 and 145 % of control

Question: And the T/C (dose: 25.0 mg/kg/injection, schedule: Q01DX Z (ip), vehicle: other)?
Answer: 139 % of control

Question: And the T/C [1]?
Answer: 126 % of control

Question: And the survivor count [1]?
Answer: 2 of 6

Question: And the survivor count (dose: 40.0 mg/kg/injection, schedule: Q01DX015 (ip), vehicle: carboxymethylcellulose (CMC))?
Answer: 0 of 6

Question: And the T/C [2]?
Answer: 135 % of control [7 of 10 alive]

Question: And the survivor count [2]?
Answer: 4 of 10

Question: What about the survivor count (dose: 84.0 mg/kg/injection, schedule: Q01DX Z (ip), vehicle: other) of the same compound?
Answer: 1 of 6

Question: And the survivor count (dose: 100.0 mg/kg/injection, schedule: Q01DX001 (ip), vehicle: carboxymethylcellulose (CMC))?
Answer: 0 of 10 and 2 of 10

Question: And the survivor count (dose: 100.0 mg/kg/injection, schedule: Q## X001 (ip), vehicle: carboxymethylcellulose (CMC))?
Answer: 10 of 10

Question: And the survivor count (dose: 200.0 mg/kg/injection, schedule: Q01DX001 (ip), vehicle: carboxymethylcellulose (CMC))?
Answer: 0 of 10

Question: What about the survivor count (dose: 200.0 mg/kg/injection, schedule: Q## X001 (ip), vehicle: carboxymethylcellulose (CMC)) of the same compound?
Answer: 10 of 10
